According to PubChem BioAssay AID298 (DTP/NCI, 2004):
The list is a part of this screen's results and no random one: it is rich in T/C values a quarter to a half above the control, in often repeated tests (any T/C) and in doses without a T/C. Further doses and runs are listed elsewhere. T/C: endpoint of the treated group in % of that of the vehicle group. Schedules are NCI's codes, read here as Q, the interval in days (D) or hours (H), X, the number of doses. Some doses have a count of surviving animals in place of a T/C: the source files T/C as zero there, which appears to mark a toxic dose or a test without result, not a measured value. Counts of survivors are from the toxicity check (mostly the fifth day) where no day follows; animals may have died later.

System: MX-1 breast xenograft, intrarenal, nude mice, tumor weight
Test: NCI In Vivo Anticancer Drug Screen. Data for tumor model Human Mammary Carcinoma MX-1 Xenograft (intrarenal inoculation) in NU/NU BALB/C (nude) mice
Conditions: T/C endpoint: mean tumor weight change, schedule: Q04DX003 (ip), higher T/C = larger tumour
In short: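 Antitumor activity is expressed as a T/C ratio. The treated group's tumor size or survival is compared against the vehicle-treated control group in mice bearing transplanted tumors.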

For `Cc1ccc(C(=Nc2ccccc2)N=P(c2ccccc2)(c2ccccc2)c2ccccc2)cc1`, the survivor count (dose: 200.0 mg/kg/injection, vehicle: saline with Tween-80) was 1 of 6 on day 11 and the survivor count (dose: 400.0 mg/kg/injection, vehicle: saline with Tween-80) was 0 of 6 on day 11.
For `CC(=O)C(Cl)C(=O)c1c(C)[nH]n(-c2ccccc2)c1=O` (stereo not given), the T/C (dose: 75.0 mg/kg/injection, vehicle: Klucel (hydroxypropylcellulose) (HPC), evaluated on day 11) was 130 % of control, the survivor count (dose: 300.0 mg/kg/injection, vehicle: Klucel (hydroxypropylcellulose) (HPC)) was 2 of 5 on day 11 and the survivor count (dose: 600.0 mg/kg/injection, vehicle: Klucel (hydroxypropylcellulose) (HPC)) was 0 of 5 on day 11.
